The nature of data set [1]: Relative output and lasing wavelength maximum, pumped at 308 nm by xenon-chloride excimer laser. The settings on record: 308 nm XeCl excimer pumped.
A short description of data set [2]: Flashlamp-pumped lasing and usable lifetime.

`c1ccc2c(c1)Cc1cc(-c3ccc4c(c3)Cc3ccccc3-4)ccc1-2` [2,2'-bifluorene]: in data set [1] (Table II, dioxane/methanol), the “Lasing Wavelength Maximum” value amounted to 375 nm. The “Lasing wavelength, flashlamp pumped” value in data set [2] (dimethylformamide) worked out at 395 nm; in data set [2] (ethanol), 358 nm.

In the case of `c1ccc2c(c1)oc1cc(-c3ccc4c(c3)oc3ccccc34)ccc12` [3,3'-bi(dibenzofuran)], in data set [1] (Table III, dioxane), the “Lasing Wavelength Maximum” value is recorded as approximately 375 nm. In addition, the “Output energy greater than the known laser dye BBQ” value in data set [1] (dioxane) is reported as approximately 70%.

With `CCCC1(CCC)c2ccccc2-c2ccc(-c3ccc4c(c3)C(CCC)(CCC)c3ccccc3-4)cc21` [9,9,9',9'-tetrapropyl-2,2'-bifluorene], the “Lasing Wavelength Maximum” value in data set [1] (Table III, dioxane) is 383 nm; in data set [1] (Table III, dioxane, listed as 9,9,9'9'-tetrapropyl-2,2'-bifluorene), “about 383 nm”. Besides, in data set [1] (dioxane), the “Output energy greater than the known laser dye BBQ” value is “about 27%”. For the same compound, in data set [2] (ethanol/DMF), the “Lasing wavelength peak, flashlamp pumped” value is recorded as 382 nm. In addition, the “Greater usable lifetime than commercial dye LD-390” value in data set [2] (flashlamp pumped, ethanol/DMF) is 45%.

Take `CC(C)(C)c1ccc(-c2nnc(-c3ccc(-c4ccccc4)cc3)o2)cc1` [Butyl-PBD, reference compound]: in data set [1] (Table II, ethanol/toluene), the “Lasing Wavelength Maximum” value is reported as 370 nm.

As to `c1ccc(-c2ccc(-c3ccccc3)cc2)cc1` [p-terphenyl, reference compound], in data set [1] (Table II, dioxane), the “Lasing Wavelength Maximum” value stood at 335 nm.

Source of the values: patent US5037578A, “O,O'-bridged oligophenylene laser dyes and dyestuff lasers and method of lasing therewith” (Exciton Chemical Company, priority 1990, dated 1991).
